From PMC11476549
No constants are given. Whether binding was seen depends on the method and setting. Binding seen in cells or lysates may run through a third protein. Some results given as binding are weak or reduced against the parent protein; the word gives no strength.

Amino acid sequences for entries named in this document (tags omitted). A change or cut given only in a name is not applied to a line headed by its entry.
UniProt Q9UPY5: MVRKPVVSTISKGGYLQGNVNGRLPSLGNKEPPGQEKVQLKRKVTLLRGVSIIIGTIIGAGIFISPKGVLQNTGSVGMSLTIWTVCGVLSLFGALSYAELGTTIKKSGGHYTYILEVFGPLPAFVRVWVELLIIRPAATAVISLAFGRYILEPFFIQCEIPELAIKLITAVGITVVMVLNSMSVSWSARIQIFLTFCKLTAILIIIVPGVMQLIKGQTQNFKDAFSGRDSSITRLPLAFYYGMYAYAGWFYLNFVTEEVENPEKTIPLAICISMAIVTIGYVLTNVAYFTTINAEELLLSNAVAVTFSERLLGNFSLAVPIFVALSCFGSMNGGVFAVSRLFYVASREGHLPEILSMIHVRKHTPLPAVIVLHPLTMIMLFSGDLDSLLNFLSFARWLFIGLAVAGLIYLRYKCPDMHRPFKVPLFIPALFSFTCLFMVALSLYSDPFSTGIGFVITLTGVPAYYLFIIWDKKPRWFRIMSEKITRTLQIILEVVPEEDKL

Key:
Test in all cases: co-IP; myc-xCT (WT or mutant) precipitated with anti-c-Myc magnetic beads from lysates of COS-7 cells co-transfected with HA-4F2HC; lysis buffer 25 mM Tris, 0.15 M NaCl, 1 mM EDTA, 1% NP40, 5% glycerol, pH 7.4; 30 min at room temperature; blot probed with anti-HA
[1] = biological target: myc-K473Q xCT (SLC7A11), human (human) (UniProt Q9UPY5)
[2] = biological target: myc-K473R xCT (SLC7A11), human (human) (UniProt Q9UPY5)
[3] = biological target: myc-N314Q xCT (SLC7A11), human (human) (UniProt Q9UPY5)
[4] = biological target: myc-wildtype xCT (SLC7A11), human (human) (UniProt Q9UPY5)

Measured: binding

HA-4F2HC (SLC3A2, CD98), human (from UniProt P08195 1-529)
binds: all assays above
